Reference: article doi:10.1101/2025.09.24.678334
These are yes or no findings as the source states them, for the method shown. Some binding calls cover weakened binding; strength is not graded here.

Chains of the proteins cited; added tags and fusions are not shown. Lines headed by an entry give the natural chain unless they say otherwise; changes in a name come on top. A line that says so, or that is headed by a name, gives the form on record, which may keep a tag or linker.
S119A S120A cofilin (P23528, form named): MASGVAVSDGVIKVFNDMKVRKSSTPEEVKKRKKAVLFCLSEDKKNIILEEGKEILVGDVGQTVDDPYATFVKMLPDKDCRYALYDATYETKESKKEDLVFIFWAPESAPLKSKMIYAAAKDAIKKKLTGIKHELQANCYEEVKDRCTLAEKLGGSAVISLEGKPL

Target: Importin 9 (IPO9), GST tag cleaved (human) (UniProt Q96P70)
Assay: SPR; IPO9 (80 nM, about 6000 RU) coupled by EDC/NHS to a CM5 chip; concentration series of analyte (RanGTP 0-1 μM, cofilin 0-55 μM, profilin 0-60 μM); Biacore 8k; 1X HBS-EP+; both purified

Substance | binding
S119A S120A cofilin (from UniProt P23528 1-166) | binds weakly
human cofilin-1, wild type (from UniProt P23528 1-166) | binds weakly
